No constants are given. Whether binding was seen depends on the method and setting. Binding can be weak; no strength is given.
Molecular target: T1, C6-2 fragment of the CTL of rat Cav1.3L (rat)
T1 sequence: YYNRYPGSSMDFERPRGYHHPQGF
Assay: two-hybrid; Matchmaker GAL4 system, yeast AH109; Cav1.3 fragments as bait in pGBKT7, Snapin2 as prey (rat brain cDNA library clone in pACT2); blue colonies on high-stringent SD medium lacking Ade, His, Leu and Trp with X-alpha-Gal

Substance: rat Snapin2
- binding: binds
